Source: patent publication US20090324602A1
These are yes or no findings as the source states them, for the method shown. Some results given as binding are weak or reduced against the parent protein; the word gives no strength.

The chains behind the UniProt entries cited, without tags or fusion partners. Where a name states a change or a piece, a line headed by the entry shows the natural chain unless it says otherwise.
UniProt Q9NP84: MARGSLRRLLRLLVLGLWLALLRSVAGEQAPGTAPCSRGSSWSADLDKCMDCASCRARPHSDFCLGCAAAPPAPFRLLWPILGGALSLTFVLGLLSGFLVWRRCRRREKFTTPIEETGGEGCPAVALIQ

B1: monoclonal antibody 1.P3G5.1E4 (P3G5), murine (antibody, V domains shown)
VH: QVQLQQSGPEVVRPGVSVKISCKGSGYTFTDYGIHWVKQSHAKSLEWIGVISTYNGYTNYNQKFKGKATMTVDKSSSTAYMELARLTSEDSAIYYCARAYYGNLYYAMDYWGQGTSVTVSS
VL: DIVLTQSPASLAVSLGQRATISCRANKSVSTSSYSYMHWYQQKPGQPPKLLIKYASNLESGVPARFSGSGSGTDFILNIHPVEEEDAATYYCQHSRELPFTFGSGTKLEIK
B2: humanized P4A8 (H1/L2) huIgG1, kappa (antibody, V domains shown)
VH: QVQLVQSGAEVKKPGASVKVSCKGSGYTFTDYGMHWVRQAPGQGLEWMGVISTYNGYTNYNQKFKGRVTMTVDKSTSTAYMELRSLRSDDTAVYYCARAYYGNLYYAMDYWGQGTLVTVSS
VL: DIVLTQSPASLAVSLGQRATISCRASKSVSTSSYSYMHWYQQKPGQPPKLLIKYASNLESGVPARFSGSGSGTDFILNIHPMEEDDTAMYFCQHSRELPFTFGGGTKLEIKR
B3: humanized P4A8 (H1/L3) huIgG1, kappa (antibody, V domains shown)
VH: QVQLVQSGAEVKKPGASVKVSCKGSGYTFTDYGMHWVRQAPGQGLEWMGVISTYNGYTNYNQKFKGRVTMTVDKSTSTAYMELRSLRSDDTAVYYCARAYYGNLYYAMDYWGQGTLVTVSS
VL: DIVLTQSPASLAVSLGQRATISCRASKSVSTSSYSYMHWYQQKPGQPPKLLIKYASNLESGVPARFSGSGSGTDFILNIHPMEEDDTATYYCQHSRELPFTFGGGTKLEIKR
B4: humanized P4A8 (H2/L1) huIgG1, kappa (antibody, V domains shown)
VH: QVQLVQSGAEVKKPGASVKVSCKGSGYTFTDYGMHWVRQAPGQGLEWIGVISTYNGYTNYNQKFKGRATMTVDKSTSTAYMELRSLRSDDTAVYYCARAYYGNLYYAMDYWGQGTLVTVSS
VL: DIVLTQSPASLAVSLGQRATISCRASKSVSTSSYSYMHWYQQKPGQPPKLLIKYASNLESGVPARFSGSGSGTDFSLNIHPMEEDDTAMYFCQHSRELPFTFGGGTKLEIKR
B5: humanized P4A8 (H2/L2) huIgG1, kappa (antibody, V domains shown)
VH: QVQLVQSGAEVKKPGASVKVSCKGSGYTFTDYGMHWVRQAPGQGLEWIGVISTYNGYTNYNQKFKGRATMTVDKSTSTAYMELRSLRSDDTAVYYCARAYYGNLYYAMDYWGQGTLVTVSS
VL: DIVLTQSPASLAVSLGQRATISCRASKSVSTSSYSYMHWYQQKPGQPPKLLIKYASNLESGVPARFSGSGSGTDFILNIHPMEEDDTAMYFCQHSRELPFTFGGGTKLEIKR
B6: humanized P4A8 (H2/L3) huIgG1, kappa (antibody, V domains shown)
VH: QVQLVQSGAEVKKPGASVKVSCKGSGYTFTDYGMHWVRQAPGQGLEWIGVISTYNGYTNYNQKFKGRATMTVDKSTSTAYMELRSLRSDDTAVYYCARAYYGNLYYAMDYWGQGTLVTVSS
VL: DIVLTQSPASLAVSLGQRATISCRASKSVSTSSYSYMHWYQQKPGQPPKLLIKYASNLESGVPARFSGSGSGTDFILNIHPMEEDDTATYYCQHSRELPFTFGGGTKLEIKR

Legend:
[1] = biological target: huFn14-huFc fusion protein (human) (UniProt Q9NP84); test: ELISA on plate-coated hFn14-hFc, biotinylated P3G5 at 0.2 ug/ml, HRP-streptavidin, OD450
[2] = biological target: huFn14-huFc fusion protein (human) (UniProt Q9NP84); test: competition ELISA, huFn14-huFc coated, competitor biotinylated murine P4A8 (FIG. 25)
[3] = biological target: huFn14-huFc fusion protein (human) (UniProt Q9NP84); test: competition ELISA (legend of FIG. 25)

Row | Binder | binding [1] | binding [2] | binding [3]
1 | B1 | binds |  | 
2 | B2 |  | binds | binds
3 | B3 |  | binds | binds
4 | B4 |  | binds | binds
5 | B5 |  | binds | binds
6 | B6 |  | binds | binds
